# Laboratory results from the supplement of paper PMC8728848.
# Some of the results follow.
# Tests used:
# Test in all cases: glycan array binding signal (z-score within array); higher = stronger binding
# Details in all cases: glycan notation: IUPAC condensed, linker removed
# [1] = molecular target: Fuc(b1-3)GlcNAc
# Procedure, shortened: (§1)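 Arrays were curated from the Consortium for Functional Glycomics database, 3228 in total, and kept only where the protein sequence was available. Binding is expressed as a within-array Z-score. This score was averaged across arrays of the same protein sequence at different concentrations or buffers and across linkers, and negative values can be read as non-binding.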
# [2] = molecular target: Gal(a1-2)Gal
# Procedure, shortened: as §1
# [3] = molecular target: Gal(a1-3)Gal
# Procedure, shortened: as §1
# [4] = molecular target: Gal(a1-3)Gal(b1-3)Glc
# Procedure, shortened: as §1
# [5] = molecular target: Gal(a1-3)Gal(b1-3)GlcNAc
# Procedure, shortened: as §1
# [6] = molecular target: Gal(a1-3)Gal(b1-4)GlcNAc
# Procedure, shortened: as §1
# [7] = molecular target: Gal(a1-3)Gal(b1-4)[Fuc(a1-3)]GalNAc
# Procedure, shortened: as §1
# [8] = molecular target: Gal(a1-3)GlcNAc
# Procedure, shortened: as §1
# [9] = molecular target: Gal(a1-3)[Gal(a1-4)]Gal(b1-4)GlcNAc
# Procedure, shortened: as §1
# [10] = molecular target: Gal(a1-4)Gal(b1-4)Gal
# Procedure, shortened: as §1
# [11] = molecular target: Gal(a1-4)Gal(b1-4)GalNAc
# Procedure, shortened: as §1
# [12] = molecular target: Gal(a1-4)GlcNAc
# Procedure, shortened: as §1
# [13] = molecular target: Gal(a1-6)Glc
# Procedure, shortened: as §1
# [14] = molecular target: Gal(b1-2)Gal
# Procedure, shortened: as §1
# [15] = molecular target: Gal(b1-3)Gal
# Procedure, shortened: as §1
# [16] = molecular target: Gal(b1-3)GalNAc
# Procedure, shortened: as §1
# [17] = molecular target: Gal(b1-3)GalNAc(b1-3)Gal(a1-4)Gal(b1-4)Glc
# Procedure, shortened: as §1
# [18] = molecular target: Gal(b1-3)GalNAc(b1-3)Gal(b1-4)Glc
# Procedure, shortened: as §1
# [19] = molecular target: Gal(b1-3)GalNAc(b1-3)Gal(b1-4)GlcNAc
# Procedure, shortened: as §1
# [20] = molecular target: Gal(b1-3)GalNAc(b1-4)Gal(b1-4)Glc
# Procedure, shortened: as §1
# [21] = molecular target: Gal(b1-3)GalNAc(b1-4)[Neu5Ac(a2-3)]Gal(b1-4)Glc
# Procedure, shortened: as §1
# [22] = molecular target: Gal(b1-3)GlcNAc(b1-3)Gal(b1-3)GlcNAc
# Procedure, shortened: as §1
# [23] = molecular target: Gal(b1-3)[Fuc(a1-4)]GlcNAc
# Procedure, shortened: as §1
# [24] = molecular target: Gal(b1-3)[Fuc(a1-4)]GlcNAc(b1-3)Gal(b1-3)[Fuc(a1-4)]GlcNAc
# Procedure, shortened: as §1
# [25] = molecular target: Gal(b1-3)[Fuc(a1-4)]GlcNAc(b1-3)Gal(b1-4)GlcNAc
# Procedure, shortened: as §1
# [26] = molecular target: Gal(b1-3)[Fuc(a1-4)]GlcNAc(b1-3)Gal(b1-4)[Fuc(a1-3)]GlcNAc
# Procedure, shortened: as §1
# [27] = molecular target: Gal(b1-3)[GlcNAc(b1-6)]GalNAc
# Procedure, shortened: as §1
# [28] = molecular target: Gal(b1-3)[GlcNAc(b1-6)]GlcNAc
# Procedure, shortened: as §1
# [29] = molecular target: Gal(b1-3)[Neu5Ac(a2-6)]GalNAc
# Procedure, shortened: as §1
# [30] = molecular target: Gal(b1-3)[Neu5Ac(a2-6)]GlcNAc
# Procedure, shortened: as §1
# [31] = molecular target: Gal(b1-3)[Neu5Ac(a2-6)]GlcNAc(a1-4)Gal(b1-4)Glc
# Procedure, shortened: as §1
# [32] = molecular target: Gal(b1-3)[Neu5Ac(b2-6)]GlcNAc
# Procedure, shortened: as §1
# [33] = molecular target: Gal(b1-4)GalNAc(a1-3)[Fuc(a1-2)]Gal(b1-4)GlcNAc
# Procedure, shortened: as §1
# [34] = molecular target: Gal(b1-4)GalNAc(b1-3)[Fuc(a1-2)]Gal(b1-4)GlcNAc
# Procedure, shortened: as §1
# [35] = molecular target: Gal(b1-4)Glc
# Procedure, shortened: as §1
# [36] = molecular target: Gal(b1-4)Glc6S
# Procedure, shortened: as §1
# [37] = molecular target: Gal(b1-4)GlcNAc
# Procedure, shortened: as §1
# [38] = molecular target: Gal(b1-4)GlcNAc(b1-2)Man(a1-3)[Gal(b1-4)GlcNAc(b1-2)Man(a1-6)]Man(b1-4)GlcNAc(b1-4)GlcNAc
# Procedure, shortened: as §1
# [39] = molecular target: Gal(b1-4)GlcNAc(b1-3)Gal(b1-3)GlcNAc
# Procedure, shortened: as §1
# [40] = molecular target: Gal(b1-4)GlcNAc(b1-3)Gal(b1-4)Glc
# Procedure, shortened: as §1
# [41] = molecular target: Gal(b1-4)GlcNAc(b1-3)Gal(b1-4)GlcNAc
# Procedure, shortened: as §1
# [42] = molecular target: Gal(b1-4)GlcNAc(b1-3)Gal(b1-4)GlcNAc(b1-3)Gal(b1-4)GlcNAc
# Procedure, shortened: as §1
# [43] = molecular target: Gal(b1-4)GlcNAc(b1-3)Gal(b1-4)[Fuc(a1-3)]GlcNAc(b1-3)Gal(b1-4)[Fuc(a1-3)]GlcNAc
# Procedure, shortened: as §1
# [44] = molecular target: Gal(b1-4)GlcNAc(b1-3)GalNAc
# Procedure, shortened: as §1
# [45] = molecular target: Gal(b1-4)GlcNAc(b1-3)[Gal(b1-4)GlcNAc(b1-6)]GalNAc
# Procedure, shortened: as §1
binder,measurement,setting,value
"NKp30 (Homo sapiens), O14931 (protein) LWVSQPPEIRTLEGSSAFLPCSFNASQGRLAIGSVTWFRDEVVPGKEVRNGTPEFRGRLAPLASSRFLHDHQAELHIRDVRGHDASIYVCRVEVLGLGVGTGNGTRLVVEKEHPQLG",glycan array binding signal (z-score),[1],-0.447
same,glycan array binding signal (z-score),[2],-0.596
same,glycan array binding signal (z-score),[3],-0.485
same,glycan array binding signal (z-score),[4],0.252
same,glycan array binding signal (z-score),[5],-0.623
same,glycan array binding signal (z-score),[6],-0.883
same,glycan array binding signal (z-score),[7],-1.07
same,glycan array binding signal (z-score),[8],-0.793
same,glycan array binding signal (z-score),[9],-0.978
same,glycan array binding signal (z-score),[10],-0.681
same,glycan array binding signal (z-score),[11],-0.788
same,glycan array binding signal (z-score),[12],-0.176
same,glycan array binding signal (z-score),[13],-0.099
same,glycan array binding signal (z-score),[14],-0.007
same,glycan array binding signal (z-score),[15],-0.378
same,glycan array binding signal (z-score),[16],-0.24
same,glycan array binding signal (z-score),[17],-0.534
same,glycan array binding signal (z-score),[18],-0.43
same,glycan array binding signal (z-score),[19],-0.061
same,glycan array binding signal (z-score),[20],-0.723
same,glycan array binding signal (z-score),[21],-0.251
same,glycan array binding signal (z-score),[22],1.33
same,glycan array binding signal (z-score),[23],-0.678
same,glycan array binding signal (z-score),[24],0.191
same,glycan array binding signal (z-score),[25],-0.628
same,glycan array binding signal (z-score),[26],-0.456
same,glycan array binding signal (z-score),[27],0.027
same,glycan array binding signal (z-score),[28],-0.956
same,glycan array binding signal (z-score),[29],0.513
same,glycan array binding signal (z-score),[30],-0.427
same,glycan array binding signal (z-score),[31],-0.123
same,glycan array binding signal (z-score),[32],-0.988
same,glycan array binding signal (z-score),[33],-0.961
same,glycan array binding signal (z-score),[34],-1.16
same,glycan array binding signal (z-score),[35],-0.071
same,glycan array binding signal (z-score),[36],1.09
same,glycan array binding signal (z-score),[37],-0.275
same,glycan array binding signal (z-score),[38],-0.644
same,glycan array binding signal (z-score),[39],0.493
same,glycan array binding signal (z-score),[40],0.852
same,glycan array binding signal (z-score),[41],0.468
same,glycan array binding signal (z-score),[42],0.321
same,glycan array binding signal (z-score),[43],-0.177
same,glycan array binding signal (z-score),[44],-0.19
same,glycan array binding signal (z-score),[45],-0.011

# Exported bar-delimited: part of the list above.
binder | measurement | setting | value
NKp30 (Homo sapiens), O14931 (protein) LWVSQPPEIRTLEGSSAFLPCSFNASQGRLAIGSVTWFRDEVVPGKEVRNGTPEFRGRLAPLASSRFLHDHQAELHIRDVRGHDASIYVCRVEVLGLGVGTGNGTRLVVEKEHPQLG | glycan array binding signal (z-score) | [9] | -0.978
same | glycan array binding signal (z-score) | [26] | -0.456
